# Experimental data as given in PubChem BioAssay AID504339 (National Center for Advancing Translational Sciences (NCATS), 2011).
# Sequences of proteins named here, by UniProt entry; tags and fusion partners are left off. A change or cut given only in a name is not applied to a line headed by its entry.
# UniProt O75164: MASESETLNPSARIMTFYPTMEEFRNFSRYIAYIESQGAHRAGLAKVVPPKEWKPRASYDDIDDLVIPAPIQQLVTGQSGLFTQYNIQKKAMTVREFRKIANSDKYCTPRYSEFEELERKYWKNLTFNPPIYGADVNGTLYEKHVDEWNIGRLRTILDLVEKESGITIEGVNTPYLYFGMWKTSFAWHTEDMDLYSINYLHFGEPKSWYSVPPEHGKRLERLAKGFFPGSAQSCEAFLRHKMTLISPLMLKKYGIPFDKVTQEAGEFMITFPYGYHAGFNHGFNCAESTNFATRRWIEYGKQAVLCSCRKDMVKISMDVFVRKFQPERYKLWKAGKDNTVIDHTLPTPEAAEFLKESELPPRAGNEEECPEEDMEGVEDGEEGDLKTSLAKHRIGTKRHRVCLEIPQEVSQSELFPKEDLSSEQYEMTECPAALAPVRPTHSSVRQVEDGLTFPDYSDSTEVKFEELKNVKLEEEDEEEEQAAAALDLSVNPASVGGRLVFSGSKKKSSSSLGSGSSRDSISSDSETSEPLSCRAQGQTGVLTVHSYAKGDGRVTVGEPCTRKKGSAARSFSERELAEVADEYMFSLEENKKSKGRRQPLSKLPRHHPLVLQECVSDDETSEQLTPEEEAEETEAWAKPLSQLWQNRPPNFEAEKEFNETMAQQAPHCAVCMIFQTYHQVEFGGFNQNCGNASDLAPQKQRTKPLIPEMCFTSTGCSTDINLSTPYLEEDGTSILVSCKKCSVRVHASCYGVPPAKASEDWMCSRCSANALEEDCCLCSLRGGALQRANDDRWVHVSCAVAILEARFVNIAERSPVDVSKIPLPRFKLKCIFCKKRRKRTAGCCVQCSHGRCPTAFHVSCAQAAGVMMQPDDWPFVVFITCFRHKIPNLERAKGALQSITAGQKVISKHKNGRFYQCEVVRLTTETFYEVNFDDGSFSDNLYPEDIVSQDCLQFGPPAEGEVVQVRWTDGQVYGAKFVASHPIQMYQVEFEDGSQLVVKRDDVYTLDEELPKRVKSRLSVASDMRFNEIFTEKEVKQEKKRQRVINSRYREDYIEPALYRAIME
# The entries are a selection whose mix differs from that of the whole data set. Inconclusive results are not listed. Activity calls are given as the source filed them. Calls come from the whole dose curve; as a rule, active = well fitted inhibition curve with a large enough effect; inconclusive = small, poorly fitted or top-dose-only effect; inactive = no such curve, though single readings can be large or run the other way.
# Target: Lysine-specific demethylase 4A (Homo sapiens) (UniProt O75164)
# Test: qHTS Assay for Inhibitors of JMJD2A-Tudor Domain; note: nearly all actives have a fitted effect of over 50% in size
# Settings: AlphaScreen JMJD2A-Tudor / H3K4me3 peptide binding
# Excerpt: JMJD2A is a jumonji-domain-containing lysine demethylase that uses Fe(II) together with 2-OG to effect oxidative demethylation of histones. Methylation is one of many […] modification that affect epigenetic transcription. […] It is proposed that the functions of JmjD2A binding to the histones, is to maintain marks after they are installed and to spread the modifications by […], establishing a self-propagating cycle for rapid methylation over a large area of chromatin. […] A quantitative high throughput AlphaScreen has been developed to identify small molecule inhibitors based on a protocol published by NCGC and SGC [4]. […]
# [2] Yasgar, et al. Compound Management for Quantitative High-Throughput Screening. […]
# [3] Inglese, et al. Quantitative high-throughput screening: a titration-based approach that efficiently identifies biological activities in large chemical libraries. […]
# To each well of a 1,536w plate, 2ul of JMJD2A-Tudor (final 100nM) and 1ul biotinylated histone peptide methylated at Lys4 [b-H3(1-18)K4me3] […] Microplates were then read on an EnVision multilabel plate reader using the 1,536 plate HTS AlphaScreen aperture (excitation time 80 ms, measurement time 240 ms).
# Potency is the fitted concentration of half-maximal effect.
row,SMILES,Potency
1,O=C(O)COCCN1CCN(C(c2ccccc2)c2ccc(Cl)cc2)CC1 (stereo unspecified),active: 79.4 µM
